For experiment [1], the target named is DRN, full length, yeast two-hybrid fusion (Arabidopsis) (UniProt Q9SAD4). The experiment can be described thus: two-hybrid; pGBKT7 (BD) and pGADT7 (AD) fusions in yeast strain Y2H Gold; tested on SD/−Leu/−Trp/−His/−Ade in dilutions of 10^−1, 10^−2 and 10^−3.
The target in the next experiment is DRN-nYFP (Arabidopsis) (UniProt Q9SAD4). The experiment in a line: split reporter; BiFC with split YFP in inflorescence SAMs of transgenic Arabidopsis, fusions driven by the native promoters, lines made by crossing.

Protein sequences, listed by entry. Tags and fused reporters are not part of them.
UniProt Q9SAD4: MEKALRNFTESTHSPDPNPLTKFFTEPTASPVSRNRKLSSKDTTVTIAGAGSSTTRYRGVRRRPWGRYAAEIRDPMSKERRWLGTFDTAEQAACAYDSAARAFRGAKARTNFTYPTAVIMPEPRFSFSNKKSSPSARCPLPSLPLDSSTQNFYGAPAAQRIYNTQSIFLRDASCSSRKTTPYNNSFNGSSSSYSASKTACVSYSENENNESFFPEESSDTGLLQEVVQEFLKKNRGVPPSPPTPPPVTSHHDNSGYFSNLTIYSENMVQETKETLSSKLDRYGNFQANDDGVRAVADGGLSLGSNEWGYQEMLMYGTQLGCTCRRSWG
UniProt Q6EVK6: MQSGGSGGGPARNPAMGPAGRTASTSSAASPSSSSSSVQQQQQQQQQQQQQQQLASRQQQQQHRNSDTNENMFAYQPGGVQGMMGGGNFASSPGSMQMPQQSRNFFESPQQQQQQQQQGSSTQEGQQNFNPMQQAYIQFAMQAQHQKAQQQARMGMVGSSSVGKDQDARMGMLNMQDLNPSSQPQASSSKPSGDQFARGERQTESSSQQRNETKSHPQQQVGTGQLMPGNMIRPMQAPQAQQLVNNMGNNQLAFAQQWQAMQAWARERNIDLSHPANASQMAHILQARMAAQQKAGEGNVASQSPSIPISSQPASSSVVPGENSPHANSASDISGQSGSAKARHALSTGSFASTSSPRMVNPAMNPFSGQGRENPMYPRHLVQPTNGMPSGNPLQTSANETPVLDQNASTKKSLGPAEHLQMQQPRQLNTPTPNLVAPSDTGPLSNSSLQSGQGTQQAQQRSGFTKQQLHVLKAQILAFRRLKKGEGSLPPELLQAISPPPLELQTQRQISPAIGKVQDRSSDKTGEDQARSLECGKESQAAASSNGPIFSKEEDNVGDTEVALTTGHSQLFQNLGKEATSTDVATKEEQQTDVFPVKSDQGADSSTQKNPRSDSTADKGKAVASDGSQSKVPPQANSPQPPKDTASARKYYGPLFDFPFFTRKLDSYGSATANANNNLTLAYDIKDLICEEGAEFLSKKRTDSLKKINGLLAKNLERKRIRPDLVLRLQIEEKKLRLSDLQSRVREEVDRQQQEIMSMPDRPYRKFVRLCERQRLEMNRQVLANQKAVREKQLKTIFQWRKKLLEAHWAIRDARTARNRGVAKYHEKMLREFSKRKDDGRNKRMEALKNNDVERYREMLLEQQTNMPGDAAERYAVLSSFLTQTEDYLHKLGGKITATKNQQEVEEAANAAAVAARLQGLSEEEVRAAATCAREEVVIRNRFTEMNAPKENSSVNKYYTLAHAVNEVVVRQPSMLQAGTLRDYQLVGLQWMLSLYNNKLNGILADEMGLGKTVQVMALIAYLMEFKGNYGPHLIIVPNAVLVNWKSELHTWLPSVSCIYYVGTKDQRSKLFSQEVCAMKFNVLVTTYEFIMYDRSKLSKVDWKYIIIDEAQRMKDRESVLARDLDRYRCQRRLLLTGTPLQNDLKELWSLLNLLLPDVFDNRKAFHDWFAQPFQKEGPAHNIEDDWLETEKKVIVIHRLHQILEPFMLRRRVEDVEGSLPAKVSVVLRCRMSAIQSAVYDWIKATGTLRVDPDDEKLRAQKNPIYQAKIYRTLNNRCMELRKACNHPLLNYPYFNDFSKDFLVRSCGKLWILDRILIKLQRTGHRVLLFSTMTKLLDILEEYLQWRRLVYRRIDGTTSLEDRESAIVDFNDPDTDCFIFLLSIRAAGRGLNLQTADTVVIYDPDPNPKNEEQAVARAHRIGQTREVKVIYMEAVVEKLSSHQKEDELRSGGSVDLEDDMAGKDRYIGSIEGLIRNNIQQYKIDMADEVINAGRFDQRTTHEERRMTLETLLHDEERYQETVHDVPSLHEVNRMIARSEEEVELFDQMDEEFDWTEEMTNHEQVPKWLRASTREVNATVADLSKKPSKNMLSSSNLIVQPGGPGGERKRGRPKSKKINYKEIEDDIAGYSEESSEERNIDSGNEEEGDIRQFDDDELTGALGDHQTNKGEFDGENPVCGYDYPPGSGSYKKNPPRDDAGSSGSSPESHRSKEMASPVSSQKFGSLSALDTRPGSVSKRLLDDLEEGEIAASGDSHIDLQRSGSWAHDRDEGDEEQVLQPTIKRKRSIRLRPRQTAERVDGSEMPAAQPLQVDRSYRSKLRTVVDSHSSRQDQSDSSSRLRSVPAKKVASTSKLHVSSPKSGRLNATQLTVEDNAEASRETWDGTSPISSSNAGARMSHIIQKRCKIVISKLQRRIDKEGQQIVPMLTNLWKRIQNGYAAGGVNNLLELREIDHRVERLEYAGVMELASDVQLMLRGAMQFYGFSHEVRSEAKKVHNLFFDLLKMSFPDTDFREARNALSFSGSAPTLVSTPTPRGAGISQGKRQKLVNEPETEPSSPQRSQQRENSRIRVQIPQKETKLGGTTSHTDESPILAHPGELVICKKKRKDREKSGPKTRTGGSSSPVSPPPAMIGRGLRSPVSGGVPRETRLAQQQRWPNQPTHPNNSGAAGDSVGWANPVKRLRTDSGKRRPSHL

Results are given in words; binding and its absence hold for the method and conditions named. For some assays here: Binding seen in cells or lysates may run through a third protein. Some results given as binding are weak or reduced against the parent protein; the word gives no strength.

As for “BRM, full length, yeast two-hybrid and three-hybrid fusion (from UniProt Q6EVK6 1-2193)”, in experiment [1], the binding entry is “binds”.

In the case of BRM-cYFP (from UniProt Q6EVK6 1-2193), the binding entry with DRN-nYFP (Arabidopsis) is “binds”.
